{"source": "PubChem BioAssay AID2685", "about": "(National Center for Advancing Translational Sciences (NCATS), 2010)", "test": "qHTS Assay for Lipid Storage Modulators in Drosophila S3 Cells;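 as to cell number change: cells counted by Cell Tracker Red CMTPX staining in the red channel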", "settings": "BODIPY lipid droplet fluorescence, 18-24 h; for cell number change: measured here: cell count max response, cells fed with added oleic acid", "how_it_was_run": "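Laser-scanning cytometry quantifies lipid droplet accumulation (500–530 nm total intensity; droplet/cell object ratio) in oleic acid-fed (400 uM added) Drosophila S3 cells treated with a concentration series. 20 uM Triacsin C defined 100% inhibition.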", "key": {"[1]": {"settings": "measured here: cell number channel AC50, cells fed with added oleic acid"}, "[2]": {"settings": "measured here: lipid fluorescence (Fed channel) AC50, cells fed with added oleic acid"}}, "note": "Some of the results follow. The main result of the screen is listed elsewhere. These columns were measured beside it and carry no call. The list favours compounds with an active or inconclusive main result. The note in brackets gives the kind of curve behind each potency; many fits are weak.", "data": [{"compound": "COC(=O)c1cc2c(-c3ccccc3)c(C)c3ccccn3c-2c1C(=O)OC", "values": [{"measurement": "cell number change", "value": -13.4, "unit": "%"}, {"measurement": "AC50", "setting": "[1]", "value": "6.51 µM [rising, partial curve, poor fit]"}]}, {"compound": "OCCC1CN(CCCc2ccccc2)CCN1CCc1ccccc1", "note": "(stereo not drawn)", "values": [{"measurement": "cell number change", "value": 12.4, "unit": "%"}, {"measurement": "AC50", "setting": "[2]", "value": "29.1 µM [rising, single point]"}]}, {"compound": "CCOC(=O)c1ccc(NS(=O)(=O)c2cc3c(cc2C)NC(=O)CO3)cc1", "values": [{"measurement": "cell number change", "value": -31, "unit": "%"}, {"measurement": "AC50", "setting": "[1]", "value": "29.1 µM [falling, single point]"}]}, {"compound": "CCOC(=O)c1cccc(NC(=O)CN(C)S(=O)(=O)c2cnc[nH]2)c1", "values": [{"measurement": "cell number change", "value": 5.66, "unit": "%"}, {"measurement": "AC50", "setting": "[2]", "value": "29.1 µM [rising, single point]"}]}, {"compound": "O=C(c1cc(Cl)ccc1Cl)N1CCc2ccccc21", "values": [{"measurement": "cell number change", "value": 15.1, "unit": "%"}, {"measurement": "AC50", "setting": "[2]", "value": "29.1 µM [rising, single point]"}]}, {"compound": "Cc1ccc(/C=N/N2CCN(c3ccncc3S(=O)(=O)N3CCCCC3)CC2)cc1", "values": [{"measurement": "cell number change", "value": 14.9, "unit": "%"}, {"measurement": "AC50", "setting": "[2]", "value": "0.58 µM [falling, partial curve, poor fit]"}]}, {"compound": "N#C/C(=C\\c1ccc(F)cc1)c1nc(-c2ccco2)cs1", "values": [{"measurement": "cell number change", "value": -47.9, "unit": "%"}, {"measurement": "AC50", "setting": "[1]", "value": "3.66 µM [falling, full curve]"}, {"measurement": "AC50", "setting": "[2]", "value": "2.31 µM [falling, partial curve]"}]}, {"compound": "O=C(O)C(Cc1c[nH]c2ccccc12)NS(=O)(=O)c1ccc(Cl)c(C(F)(F)F)c1", "note": "(stereo not drawn)", "values": [{"measurement": "cell number change", "value": -5.56, "unit": "%"}]}, {"compound": "C/C(=N\\NC(=O)Cc1cccc2ccccc12)c1ccncc1", "values": [{"measurement": "cell number change", "value": 3.7, "unit": "%"}, {"measurement": "AC50", "setting": "[2]", "value": "2.59 µM [rising, partial curve]"}]}, {"compound": "CC1=[N+](C)c2ccc3ccccc3c2C1(C)C", "values": [{"measurement": "cell number change", "value": -49, "unit": "%"}, {"measurement": "AC50", "setting": "[1]", "value": "29.1 µM [falling, single point]"}, {"measurement": "AC50", "setting": "[2]", "value": "2.59 µM [falling, full curve]"}]}, {"compound": "O=C(O)Cn1ncc2c1-c1ccoc1CC2", "values": [{"measurement": "cell number change", "value": 25.8, "unit": "%"}]}, {"compound": "Cc1cc(Cl)ccc1NC(=S)NCc1ccccc1", "values": [{"measurement": "AC50", "setting": "[1]", "value": "0.411 µM [rising, single point]"}]}, {"compound": "CCOC(=O)C1=C(C)NC(=O)NC1/C(C)=C/c1ccccc1", "note": "(stereo not drawn)", "values": [{"measurement": "cell number change", "value": -6.72, "unit": "%"}, {"measurement": "AC50", "setting": "[2]", "value": "29.1 µM [rising, single point]"}]}, {"compound": "Cn1c(SCc2nc3ccccc3[nH]2)nnc1-c1cccnc1", "values": [{"measurement": "cell number change", "value": -6.47, "unit": "%"}]}, {"compound": "N#C/C(=C/c1ccc(N2CCCCCC2)o1)c1ccc(Cl)cc1", "values": [{"measurement": "cell number change", "value": -56.7, "unit": "%"}, {"measurement": "AC50", "setting": "[1]", "value": "18.4 µM [falling, single point]"}, {"measurement": "AC50", "setting": "[2]", "value": "4.61 µM [falling, full curve, poor fit]"}]}, {"compound": "O=C(NCCCc1ccccc1)c1ccc(F)cc1", "values": [{"measurement": "cell number change", "value": -0.794, "unit": "%"}, {"measurement": "AC50", "setting": "[2]", "value": "3.66 µM [falling, single point]"}]}, {"compound": "O=C(c1cccc(S(=O)(=O)N2CCN(c3ccccc3)CC2)c1)N1CCCC(C(F)(F)F)C1", "note": "(stereo not drawn)", "values": [{"measurement": "cell number change", "value": -75, "unit": "%"}, {"measurement": "AC50", "setting": "[1]", "value": "1.46 µM [rising, partial curve]"}]}, {"compound": "S=C(NCCCN1CCOCC1)Nc1ccc(N2CCOCC2)cc1", "values": [{"measurement": "cell number change", "value": -55.5, "unit": "%"}, {"measurement": "AC50", "setting": "[1]", "value": "4.61 µM [falling, full curve, poor fit]"}, {"measurement": "AC50", "setting": "[2]", "value": "4.11 µM [falling, full curve]"}]}, {"compound": "O=[N+]([O-])c1ccc(C=Nc2ccc(Cl)c([N+](=O)[O-])c2)s1", "values": [{"measurement": "cell number change", "value": -56.8, "unit": "%"}, {"measurement": "AC50", "setting": "[1]", "value": "32.6 µM [falling, single point]"}, {"measurement": "AC50", "setting": "[2]", "value": "23.1 µM [falling, partial curve]"}]}, {"compound": "COc1ccccc1NC(=O)Nc1ncccc1C", "values": [{"measurement": "cell number change", "value": -8.9, "unit": "%"}, {"measurement": "AC50", "setting": "[2]", "value": "25.9 µM [falling, single point]"}]}, {"compound": "O=C(NCc1cccnc1)c1cc2nc(-c3cccs3)cc(C(F)(F)Cl)n2n1", "values": [{"measurement": "cell number change", "value": 48.2, "unit": "%"}, {"measurement": "AC50", "setting": "[1]", "value": "1.64 µM [rising, partial curve]"}, {"measurement": "AC50", "setting": "[2]", "value": "0.82 µM [rising, full curve]"}]}, {"compound": "C/C(=N\\OCC(=O)OCC(=O)NCc1ccccc1)c1ccc2c(c1)OCO2", "values": [{"measurement": "cell number change", "value": -14.1, "unit": "%"}, {"measurement": "AC50", "setting": "[1]", "value": "0.146 µM [falling, full curve, poor fit]"}]}, {"compound": "CCOC(=O)C1=C(C)Nc2ncnn2C1c1ccc2c(c1)OCO2", "note": "(stereo not drawn)", "values": [{"measurement": "cell number change", "value": -7.66, "unit": "%"}, {"measurement": "AC50", "setting": "[2]", "value": "29.1 µM [rising, single point]"}]}, {"compound": "O=C(NC(=O)c1ccccc1F)Nc1nc(-c2cccs2)cc(C(F)(F)F)n1", "values": [{"measurement": "AC50", "setting": "[1]", "value": "0.366 µM [falling, full curve]"}, {"measurement": "AC50", "setting": "[2]", "value": "0.0366 µM [falling, full curve]"}]}, {"compound": "O=C(NC1=NCCS1)c1ccc2c(c1)C(=O)N(Cc1ccco1)C2=O", "values": [{"measurement": "cell number change", "value": -3.28, "unit": "%"}, {"measurement": "AC50", "setting": "[2]", "value": "29.1 µM [rising, single point]"}]}, {"compound": "O=C(NN=C1CCCCCC1)c1ccc(Br)o1", "values": [{"measurement": "cell number change", "value": -50.3, "unit": "%"}, {"measurement": "AC50", "setting": "[1]", "value": "29.1 µM [falling, single point]"}]}, {"compound": "COc1cc(/C=C/c2cc[n+](C)cc2)ccc1OCC(=O)Nc1ccc(Cl)c(Cl)c1", "values": [{"measurement": "cell number change", "value": 65.4, "unit": "%"}, {"measurement": "AC50", "setting": "[1]", "value": "18.4 µM [rising, single point]"}, {"measurement": "AC50", "setting": "[2]", "value": "18.4 µM [falling, partial curve, poor fit]"}]}, {"compound": "COc1ccccc1NC(=O)CN1CCN(CC(=O)Nc2ccc3c(c2)OCCO3)CC1", "values": [{"measurement": "cell number change", "value": 20.1, "unit": "%"}, {"measurement": "AC50", "setting": "[2]", "value": "13 µM [rising, partial curve]"}]}, {"compound": "CCCNc1c(NS(=O)(=O)c2ccc(C3CCCCC3)cc2)c(=O)oc2ccccc12", "values": [{"measurement": "cell number change", "value": -11.9, "unit": "%"}, {"measurement": "AC50", "setting": "[2]", "value": "3.26 µM [falling, partial curve]"}]}, {"compound": "CC(c1ccccn1)N(C)C(=O)c1ccc2nc(Cc3cccc(Cl)c3)oc2c1", "note": "(stereo not drawn)", "values": [{"measurement": "cell number change", "value": -26.1, "unit": "%"}]}, {"compound": "Cc1ccc(NC(=O)c2cccc(OC(F)F)c2)c(OC(F)F)c1", "values": [{"measurement": "AC50", "setting": "[2]", "value": "14.6 µM [rising, partial curve]"}]}, {"compound": "CC1CC(C)(C)Nc2ccc(OC(=O)c3ccco3)cc21", "note": "(stereo not drawn)", "values": [{"measurement": "cell number change", "value": 2.43, "unit": "%"}, {"measurement": "AC50", "setting": "[2]", "value": "25.9 µM [falling, single point]"}]}, {"compound": "CC1(c2ccc(Cl)cc2)NC(=O)N(CC(=O)NCc2ccc(F)cc2)C1=O", "note": "(stereo not drawn)", "values": [{"measurement": "cell number change", "value": 13.7, "unit": "%"}]}, {"compound": "CC1CCN(c2ccc3nnc(CCC(=O)NCc4ccco4)n3n2)CC1", "values": [{"measurement": "cell number change", "value": -15.3, "unit": "%"}, {"measurement": "AC50", "setting": "[2]", "value": "18.4 µM [falling, single point]"}]}, {"compound": "N#CCCn1ncn(-c2ccccc2)c1=S", "values": [{"measurement": "cell number change", "value": -11.5, "unit": "%"}, {"measurement": "AC50", "setting": "[2]", "value": "0.58 µM [falling, full curve, poor fit]"}]}, {"compound": "Oc1cccc(C(O)CNCc2ccc(-c3ccccc3)cc2)c1", "note": "(stereo not drawn)", "values": [{"measurement": "cell number change", "value": 1.24, "unit": "%"}]}, {"compound": "O=C(NCc1ccco1)c1ccccc1NC(=O)C1CC(=O)N(c2ccc(Cl)cc2)C1", "note": "(stereo not drawn)", "values": [{"measurement": "cell number change", "value": 8.97, "unit": "%"}, {"measurement": "AC50", "setting": "[2]", "value": "2.06 µM [rising, single point]"}]}, {"compound": "Cc1ccc(CNC(=O)CN(C)S(=O)(=O)c2cccs2)cc1", "values": [{"measurement": "cell number change", "value": -19, "unit": "%"}, {"measurement": "AC50", "setting": "[2]", "value": "0.731 µM [falling, single point]"}]}, {"compound": "O=C(O)c1ccc(OC(F)(F)C(F)C(F)(F)F)cc1", "note": "(stereo not drawn)", "values": [{"measurement": "cell number change", "value": -40.2, "unit": "%"}, {"measurement": "AC50", "setting": "[1]", "value": "2.06 µM [falling, full curve]"}, {"measurement": "AC50", "setting": "[2]", "value": "18.4 µM [falling, partial curve]"}]}]}
